# Test results published in patent US10526389B2, “Peptides and combinations of peptides for use in immunotherapy against lung cancer, including NSCLC and other cancers” (Immatics Biotechnologies GmbH, priority 2015, dated 2020).
# For some of these results: Expression grades refer to the transcript from which the peptide derives; gene names, where given, were looked up from the sequence.
# What was measured:
# [1] = test system: source genes of the peptides (mRNA) in tumors vs normal tissues; assay: Expression profiling of genes encoding the peptides (Affymetrix microarray); parameters: species or system human; key: very highly over-expressed in tumors compared to a panel of normal tissues (+++); highly over-expressed in tumors compared to a panel of normal tissues (++); over-expressed in tumors compared to a panel of normal tissues (+); settings: tumors compared to a panel of normal tissues
# [2] = test system: HLA-A*02-positive lung cancer (NSCLC) samples; assay: Relative LC-MS quantitation of HLA-A*02 peptide presentation on tumors vs normal tissues; parameters: species or system human; settings: for Additional Entities (additional tumor types showing over-presentation) / Other relevant organs/diseases (additional tumour types on which the peptide was found): HLA-A*02 peptides; for Additional Entities (additional tumor types showing over-presentation): amendment of Table 9, >5% of measured tumor samples or ratio of geometric means tumor vs normal >3; for Other relevant organs/diseases (additional tumour types on which the peptide was found): over-presented on >5% of measured tumour samples, or presented on >5% with ratio of geometric means tumour vs normal >3
# [3] = test system: HLA-A*24-positive lung cancer (NSCLC) samples; assay: Relative LC-MS quantitation of HLA-A*24 peptide presentation on tumors vs normal tissues; parameters: species or system human; key: very highly over-presented on tumors compared to a panel of normal tissues (+++); highly over-presented on tumors compared to a panel of normal (healthy) tissues (++); over-presented on tumors compared to a panel of normal tissues (+); settings: HLA-A*24 peptides; tumors compared to a panel of normal tissues
Substance,Gene Expression (expression score of source gene) ([1]; HLA-A*02 peptides),Other relevant organs/diseases (additional tumour types on which the peptide was found) [2],Peptide Presentation (presentation score) [3],further results
11: peptide found in SMC4 (gene looked up) (YLNVQVKEL; listed as Homo sapiens) [compound 11],++,"Colon, Rectum, Liver",,"Additional Entities (additional tumor types showing over-presentation) [2]: SCLC, Melanoma, Esophageal Cancer, Urinary bladder cancer, Uterine Cancer, Gallbladder Cancer, Bile Duct Cancer, AML"
105: peptide found in STAT1 (gene looked up) (IVAESLQQV; listed as Homo sapiens) [compound 105],++,"Kidney, Stomach, Pancreas, Breast, Ovary, Esophagus",,"Additional Entities (additional tumor types showing over-presentation) [2]: SCLC, Melanoma, NHL"
8: peptide found in UBA6 (gene looked up) (ALLNILSEV; listed as Homo sapiens) [compound 8],++,"Brain, Liver, Prostate, Ovary",,"Additional Entities (additional tumor types showing over-presentation) [2]: SCLC, BRCA, Esophageal Cancer, Urinary bladder cancer, Uterine Cancer"
115: peptide found in FAP (gene looked up) (YVYQNNIYL; listed as Homo sapiens) [compound 115],+,"Stomach, Colon, Rectum, Liver, Pancreas, Breast, Melanoma, Ovary, Esophagus",,
30: peptide found in MMP1 (gene looked up) (KYLEKYYNL; listed as Homo sapiens) [compound 30],,,,Gene Expression (expression score of source gene) ([1]; HLA-A*24 peptides): +
106: peptide found in MCM4 (gene looked up) (SILEHQIQV; listed as Homo sapiens) [compound 106],++,Kidney,,"Additional Entities (additional tumor types showing over-presentation) [2]: CRC, BRCA, Esophageal Cancer, Urinary bladder cancer, Uterine Cancer, AML, NHL"
19: peptide found in GPNMB (gene looked up) (VLTSDSPAL; listed as Homo sapiens) [compound 19],+,"Liver, Melanoma, Esophagus",,
97: peptide found in LPCAT1 (gene looked up) (TLFPVRLLV; listed as Homo sapiens) [compound 97],+,"Kidney, Leukocytes",,
116: peptide found in MMP12 (gene looked up) (KIQEMQHFL; listed as Homo sapiens) [compound 116],+++,"Colon, Rectum",,
5: peptide found in GPNMB (gene looked up) (ALTSTLISV; listed as Homo sapiens) [compound 5],+,"Breast, Melanoma, Esophagus",,
117: peptide found in CCNB1 (gene looked up) (ILIDWLVQV; listed as Homo sapiens) [compound 117],+,"Kidney, Brain, Stomach, Colon, Rectum, Liver, Pancreas, Melanoma, Ovary",,
34: peptide found in MMP1 (gene looked up) (VFMKDGFFYF; listed as Homo sapiens) [compound 34],,,,Gene Expression (expression score of source gene) ([1]; HLA-A*24 peptides): +
SLC-003 (RYFPTQALNF; listed as Homo sapiens),,,+++,
143: peptide found in COPG1 (gene looked up) (AIVDKVPSV; listed as Homo sapiens) [compound 143],+,"Kidney, Liver, Pancreas, Prostate, Ovary, Esophagus",,
ABCA13-003 (EYLPEFLHTF; listed as Homo sapiens),,,+++,
TUBGCP3-001 (FYQGIVQQF; listed as Homo sapiens),,,+++,
133: peptide found in KRT10 (gene looked up) (RLASYLDKV; listed as Homo sapiens) [compound 133],+,"Pancreas, Breast, Esophagus",,
C6orf132-001 (RYGSPINTF; listed as Homo sapiens) [Peptide C6orf132-001],,,+++,
KFLESKGYEF (listed as Homo sapiens) [SEQ ID No. 45],,,+++,
RBPJ-001 (RYLHVEGGNF; listed as Homo sapiens),,,+++,
VFMKDGFFYF (listed as Homo sapiens) [SEQ ID No. 34],,,+++,
108: peptide found in UBA6 (gene looked up) (TLLDFINAV; listed as Homo sapiens) [compound 108],++,,,Additional Entities (additional tumor types showing over-presentation) [2]: NHL
PSMA4-001 (LYIGWDKHYGF; listed as Homo sapiens),,,+++,

Substance,Gene Expression (expression score of source gene) ([1]; HLA-A*02 peptides),Other relevant organs/diseases (additional tumour types on which the peptide was found) [2],Peptide Presentation (presentation score) [3],further results
RYISPDQLADL (listed as Homo sapiens) [SEQ ID No. 47],,,+++,
SMPDL3B-001 (IYNQIAELW; listed as Homo sapiens),,,+++,
2: peptide found in SLC6A14 (gene looked up) (FLIPYAIML; listed as Homo sapiens) [compound 2],++,"Stomach, Colon, Rectum, Pancreas",,"peptide was also found on (other cancers, not shown) ([2]; FIG. 1A, 1B legends, A*02): pancreatic cancer, gastric cancer, colorectal cancer, esophageal cancer; Additional Entities (additional tumor types showing over-presentation) [2]: SCLC, PC, Urinary bladder cancer, Gallbladder Cancer, Bile Duct Cancer"
95: peptide found in MSH6 (gene looked up) (KIIGIMEEV; listed as Homo sapiens) [compound 95],++,"Kidney, MCC, Esophagus",,"Additional Entities (additional tumor types showing over-presentation) [2]: SCLC, Brain Cancer, GC, CRC, Melanoma, AML, NHL"
MREG-001 (RYLFVVDRL; listed as Homo sapiens),,,+++,
24: peptide found in MMP12 (gene looked up) (NYPKSIHSF; listed as Homo sapiens) [compound 24],,,,Gene Expression (expression score of source gene) ([1]; HLA-A*24 peptides): +++
NYLLESPHRF (listed as Homo sapiens) [SEQ ID No. 51],,,+++,
RYLDSLKAIVF (listed as Homo sapiens) [SEQ ID No. 28],,,+++,
130: peptide found in TPX2 (gene looked up) (KILEDVVGV; listed as Homo sapiens) [compound 130],+,"Kidney, Stomach, Colon, Rectum, Melanoma, Ovary, Esophagus",,
IQGAP1-001 (TYAALNSKATF; listed as Homo sapiens),,,+++,
PVRL1-001 (IYNPSMGVSVL; listed as Homo sapiens),,,+++,
119: peptide found in FN1 (gene looked up) (IVDDITYNV; listed as Homo sapiens) [compound 119],+,"Liver, Pancreas, Breast, Esophagus",,
TRIM11-001 (IFLDYEAGHLSF; listed as Homo sapiens),,,+++,
FAM83A-001 (PFLQASPHF; listed as Homo sapiens),,,+++,
COL12A1-003 (SYSIGIANF; listed as Homo sapiens),,,+++,
ABCC1-001 (VYVTIDENNIL; listed as Homo sapiens),,,+++,
GLS-001 (DYIPQLAKF; listed as Homo sapiens),,,+++,
PPTC-001 (HYFNTPFQL; listed as Homo sapiens),,,+++,
ZNF697-001 (TYLTNHLRL; listed as Homo sapiens),,,+++,
LAPTM5-001 (SYMEVPTYLNF; listed as Homo sapiens),,,+++,
DYR-001 (VYTZIQSRF; listed as Homo sapiens),,,+++,
12: peptide found in SLC1A4 (gene looked up) (IVDRTTTVV; listed as Homo sapiens) [compound 12],+,,,
35: peptide found in ITGA2 (gene looked up) (TYNPEIYVI; listed as Homo sapiens) [compound 35],,,,Gene Expression (expression score of source gene) ([1]; HLA-A*24 peptides): +
